Experiment: Subcutaneous pH reduction in conscious rats
Format: in vivo, rat
Details: 0.5 ml, pH 6.1, s.c.

For `O=S(=O)(O)CCN1CCOCC1` [MES buffer], which “time for subcutaneous pH to return to physiological pH (pH 7.4)” value (50 mM MES) is on record?
Its value is no more than 10 min.

And the “time for subcutaneous pH to return to physiological pH (pH 7.4)” value (100 mM MES)?
Its value is no more than 10 min.

What about the “time subcutaneous pH remained below pH 6.5” value (250 mM MES) of the same compound?
The value was “more than 30 min”.

Source: patent US20030118636A1, “Delivery of small hydrophilic molecules packaged into lipid vesicles” (priority 2001, published 2003)
